These are yes or no findings as the source states them, for the method shown. For some of these results: Binding seen in cells or lysates may run through a third protein. Some entries that bind do so weakly or less than the wild type. For some of these results: Sequences can lack the tags named with a protein.
Key:
[1] = target: myc-epitope tagged cullin 5 (UniProt Q93034); assay: co-immunoprecipitation from [35S]-methionine labelled transfected cells
[2] = target: myc-epitope tagged APC2 (mouse) (UniProt Q8BZQ7); assay: reciprocal co-immunoprecipitation from transfected HeLa cells
[3] = target: myc-epitope tagged cullin 5 (UniProt Q93034); assay: co-immunoprecipitation with anti-HA from transfected cells
[4] = target: cullin 5 fused to the Gal4 DNA-binding domain (yeast) (UniProt P04386+Q93034); assay: yeast two-hybrid
[5] = target: mouse APC2 fused to the Gal4 DNA-binding domain (yeast; mouse) (UniProt P04386+Q8BZQ7); assay: yeast two-hybrid, -LWH with 5 mM 3-AT
[6] = target: myc-epitope tagged cullin 5 (UniProt Q93034); assay: immunoprecipitation with anti-myc from transfected cells
[7] = target: human CUL1 (untagged: transfected, in vitro translated or endogenous) (human) (UniProt Q13616); assay: co-immunoprecipitation from [35S]-methionine labelled transfected cells
[8] = target: myc-epitope tagged mouse cullin 4A (mouse) (UniProt Q3TCH7); assay: as above
[9] = target: myc-epitope tagged cullin 2 (UniProt Q13617); assay: as above
[10] = target: myc-epitope tagged cullin 5 (UniProt Q93034); assay: co-immunoprecipitation with anti-HA from [35S]-methionine labelled transfected cells
[11] = target: human CUL1 (untagged: transfected, in vitro translated or endogenous) (human) (UniProt Q13616); assay: as above
[12] = target: myc-epitope tagged mouse cullin 4A (mouse) (UniProt Q3TCH7); assay: as above
[13] = target: myc-epitope tagged cullin 2 (UniProt Q13617); assay: as above
[14] = target: human CUL1 (untagged: transfected, in vitro translated or endogenous) (human) (UniProt Q13616); assay: immunoprecipitation with anti-CUL1 from transfected cells
[15] = target: myc-epitope tagged mouse cullin 4A (mouse) (UniProt Q3TCH7); assay: reciprocal co-immunoprecipitation with anti-myc
[16] = target: myc-epitope tagged cullin 2 (UniProt Q13617); assay: reciprocal co-immunoprecipitation with anti-myc
[17] = target: full-length mouse cullin 4A fused to the Gal4 DNA-binding domain (yeast; mouse) (UniProt P04386+Q3TCH7); assay: yeast two-hybrid
[18] = target: cullin 2 fused to the Gal4 DNA-binding domain (yeast) (UniProt P04386+Q13617); assay: yeast two-hybrid
[19] = target: human CUL1 fused to the Gal4 DNA-binding domain (yeast; human) (UniProt P04386+Q13616); assay: yeast two-hybrid
[20] = target: T1, ScAPC2 fused to the GAL4 activation domain (yeast; S. cerevisiae) (UniProt Q12440); assay: yeast two-hybrid, activation of the histidine reporter gene; ScROC1 as DNA binding domain fusion
T1 sequence (looked up): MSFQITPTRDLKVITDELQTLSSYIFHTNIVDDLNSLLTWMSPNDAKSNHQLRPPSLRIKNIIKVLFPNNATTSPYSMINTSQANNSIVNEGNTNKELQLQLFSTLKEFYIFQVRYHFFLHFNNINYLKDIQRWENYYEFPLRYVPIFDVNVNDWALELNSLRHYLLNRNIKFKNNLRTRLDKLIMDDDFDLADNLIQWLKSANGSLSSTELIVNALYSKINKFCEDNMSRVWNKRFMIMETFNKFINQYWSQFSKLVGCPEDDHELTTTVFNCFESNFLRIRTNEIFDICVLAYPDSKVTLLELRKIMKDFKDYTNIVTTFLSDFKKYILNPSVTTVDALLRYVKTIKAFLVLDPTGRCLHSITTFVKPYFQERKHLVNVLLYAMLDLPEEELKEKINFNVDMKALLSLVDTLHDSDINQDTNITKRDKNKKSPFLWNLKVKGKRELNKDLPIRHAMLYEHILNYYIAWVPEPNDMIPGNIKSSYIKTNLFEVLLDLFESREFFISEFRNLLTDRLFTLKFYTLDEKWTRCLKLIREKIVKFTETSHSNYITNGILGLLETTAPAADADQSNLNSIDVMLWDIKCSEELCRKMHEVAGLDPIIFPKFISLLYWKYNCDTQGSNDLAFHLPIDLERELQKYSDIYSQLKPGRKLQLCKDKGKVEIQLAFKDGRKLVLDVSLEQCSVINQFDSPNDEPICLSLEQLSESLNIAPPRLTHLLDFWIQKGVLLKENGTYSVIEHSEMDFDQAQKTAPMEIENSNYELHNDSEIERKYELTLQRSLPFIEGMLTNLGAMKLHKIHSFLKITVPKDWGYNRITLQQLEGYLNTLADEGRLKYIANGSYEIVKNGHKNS

Amino acid sequences for entries named in this document (tags omitted). A change or cut given only in a name is not applied to a line headed by its entry. Residues count along the entry.
UniProt Q93034: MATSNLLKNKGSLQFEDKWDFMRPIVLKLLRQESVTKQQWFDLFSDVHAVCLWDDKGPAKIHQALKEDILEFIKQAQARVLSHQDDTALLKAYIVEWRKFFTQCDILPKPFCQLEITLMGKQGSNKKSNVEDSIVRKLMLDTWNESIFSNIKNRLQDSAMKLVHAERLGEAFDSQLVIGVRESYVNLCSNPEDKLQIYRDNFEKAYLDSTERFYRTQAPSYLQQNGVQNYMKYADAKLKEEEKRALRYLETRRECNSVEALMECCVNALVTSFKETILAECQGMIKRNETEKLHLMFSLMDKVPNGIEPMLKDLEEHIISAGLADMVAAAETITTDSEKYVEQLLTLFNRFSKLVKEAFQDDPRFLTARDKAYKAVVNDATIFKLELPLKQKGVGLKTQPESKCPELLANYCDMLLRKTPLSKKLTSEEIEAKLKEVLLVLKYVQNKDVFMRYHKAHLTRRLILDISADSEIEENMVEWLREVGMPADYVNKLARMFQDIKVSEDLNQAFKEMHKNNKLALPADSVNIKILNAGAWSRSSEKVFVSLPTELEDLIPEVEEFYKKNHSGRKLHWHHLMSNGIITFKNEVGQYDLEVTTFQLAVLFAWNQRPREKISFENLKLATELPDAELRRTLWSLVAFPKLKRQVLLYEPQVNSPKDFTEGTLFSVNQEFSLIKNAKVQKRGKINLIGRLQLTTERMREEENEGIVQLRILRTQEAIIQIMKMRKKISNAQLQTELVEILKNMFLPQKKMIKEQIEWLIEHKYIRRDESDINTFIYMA
UniProt Q8BZQ7, residues 15-837: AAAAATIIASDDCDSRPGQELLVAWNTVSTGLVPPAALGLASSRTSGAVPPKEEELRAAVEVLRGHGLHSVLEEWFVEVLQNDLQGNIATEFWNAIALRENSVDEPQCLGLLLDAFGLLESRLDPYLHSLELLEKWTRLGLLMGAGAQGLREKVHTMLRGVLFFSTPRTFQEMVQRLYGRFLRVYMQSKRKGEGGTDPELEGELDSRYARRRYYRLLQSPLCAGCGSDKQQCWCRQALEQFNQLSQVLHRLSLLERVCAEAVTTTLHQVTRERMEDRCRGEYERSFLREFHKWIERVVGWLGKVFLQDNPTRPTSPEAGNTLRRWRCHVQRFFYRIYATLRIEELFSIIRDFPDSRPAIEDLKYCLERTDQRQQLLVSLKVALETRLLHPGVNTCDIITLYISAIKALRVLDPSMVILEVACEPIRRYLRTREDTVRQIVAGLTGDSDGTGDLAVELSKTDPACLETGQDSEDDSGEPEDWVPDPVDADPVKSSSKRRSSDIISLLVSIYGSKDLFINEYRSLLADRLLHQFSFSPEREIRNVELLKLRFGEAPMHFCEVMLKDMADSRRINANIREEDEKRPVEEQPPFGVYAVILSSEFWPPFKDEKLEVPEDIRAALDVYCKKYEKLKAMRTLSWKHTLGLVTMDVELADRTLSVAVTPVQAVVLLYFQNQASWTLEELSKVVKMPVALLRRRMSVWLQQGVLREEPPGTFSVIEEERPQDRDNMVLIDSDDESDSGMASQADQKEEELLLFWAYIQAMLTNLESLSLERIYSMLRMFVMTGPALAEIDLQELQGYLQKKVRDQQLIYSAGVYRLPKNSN
UniProt P04386: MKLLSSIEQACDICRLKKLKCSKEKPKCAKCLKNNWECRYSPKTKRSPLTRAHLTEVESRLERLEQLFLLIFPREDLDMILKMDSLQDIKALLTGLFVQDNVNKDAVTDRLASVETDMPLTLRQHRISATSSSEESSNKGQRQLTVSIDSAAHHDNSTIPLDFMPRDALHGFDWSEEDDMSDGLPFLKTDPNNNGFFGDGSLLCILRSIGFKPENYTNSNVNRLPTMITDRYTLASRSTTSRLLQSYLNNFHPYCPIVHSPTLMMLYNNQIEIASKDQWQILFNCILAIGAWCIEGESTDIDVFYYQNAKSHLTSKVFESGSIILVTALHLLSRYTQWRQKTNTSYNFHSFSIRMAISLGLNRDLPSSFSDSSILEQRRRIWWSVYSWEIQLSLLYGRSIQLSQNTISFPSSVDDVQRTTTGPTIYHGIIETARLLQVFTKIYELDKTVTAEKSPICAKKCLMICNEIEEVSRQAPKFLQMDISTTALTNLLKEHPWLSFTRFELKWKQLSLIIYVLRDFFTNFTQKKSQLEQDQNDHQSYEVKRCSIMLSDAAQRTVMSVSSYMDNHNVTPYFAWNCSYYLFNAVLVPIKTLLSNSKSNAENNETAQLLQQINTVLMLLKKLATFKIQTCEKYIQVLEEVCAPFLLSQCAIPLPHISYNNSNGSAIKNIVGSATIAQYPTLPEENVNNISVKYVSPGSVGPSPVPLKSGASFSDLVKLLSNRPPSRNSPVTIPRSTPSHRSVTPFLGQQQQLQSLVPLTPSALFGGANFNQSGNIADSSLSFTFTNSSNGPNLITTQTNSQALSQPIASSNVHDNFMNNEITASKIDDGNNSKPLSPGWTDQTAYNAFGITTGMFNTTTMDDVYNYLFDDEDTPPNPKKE
UniProt Q13616: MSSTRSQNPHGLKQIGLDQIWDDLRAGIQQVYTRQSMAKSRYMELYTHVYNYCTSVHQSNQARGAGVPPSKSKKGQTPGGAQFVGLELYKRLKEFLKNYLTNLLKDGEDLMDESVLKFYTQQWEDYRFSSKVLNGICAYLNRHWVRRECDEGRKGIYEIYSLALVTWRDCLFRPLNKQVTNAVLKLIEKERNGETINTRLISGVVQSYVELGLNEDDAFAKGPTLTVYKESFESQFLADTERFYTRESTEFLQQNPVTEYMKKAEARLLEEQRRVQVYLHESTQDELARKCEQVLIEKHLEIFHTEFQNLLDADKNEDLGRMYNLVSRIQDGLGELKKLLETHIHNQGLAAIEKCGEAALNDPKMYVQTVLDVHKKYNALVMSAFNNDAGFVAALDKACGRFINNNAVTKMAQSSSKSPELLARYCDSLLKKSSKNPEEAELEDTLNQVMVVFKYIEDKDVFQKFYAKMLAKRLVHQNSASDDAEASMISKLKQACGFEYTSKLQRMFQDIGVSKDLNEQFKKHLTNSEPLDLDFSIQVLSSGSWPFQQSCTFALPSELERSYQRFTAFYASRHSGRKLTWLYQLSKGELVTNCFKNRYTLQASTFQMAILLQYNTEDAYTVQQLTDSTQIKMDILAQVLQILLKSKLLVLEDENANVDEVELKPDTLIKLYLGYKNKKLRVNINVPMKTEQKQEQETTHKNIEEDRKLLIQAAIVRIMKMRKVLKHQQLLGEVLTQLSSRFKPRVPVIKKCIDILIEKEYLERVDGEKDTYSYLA
UniProt Q3TCH7: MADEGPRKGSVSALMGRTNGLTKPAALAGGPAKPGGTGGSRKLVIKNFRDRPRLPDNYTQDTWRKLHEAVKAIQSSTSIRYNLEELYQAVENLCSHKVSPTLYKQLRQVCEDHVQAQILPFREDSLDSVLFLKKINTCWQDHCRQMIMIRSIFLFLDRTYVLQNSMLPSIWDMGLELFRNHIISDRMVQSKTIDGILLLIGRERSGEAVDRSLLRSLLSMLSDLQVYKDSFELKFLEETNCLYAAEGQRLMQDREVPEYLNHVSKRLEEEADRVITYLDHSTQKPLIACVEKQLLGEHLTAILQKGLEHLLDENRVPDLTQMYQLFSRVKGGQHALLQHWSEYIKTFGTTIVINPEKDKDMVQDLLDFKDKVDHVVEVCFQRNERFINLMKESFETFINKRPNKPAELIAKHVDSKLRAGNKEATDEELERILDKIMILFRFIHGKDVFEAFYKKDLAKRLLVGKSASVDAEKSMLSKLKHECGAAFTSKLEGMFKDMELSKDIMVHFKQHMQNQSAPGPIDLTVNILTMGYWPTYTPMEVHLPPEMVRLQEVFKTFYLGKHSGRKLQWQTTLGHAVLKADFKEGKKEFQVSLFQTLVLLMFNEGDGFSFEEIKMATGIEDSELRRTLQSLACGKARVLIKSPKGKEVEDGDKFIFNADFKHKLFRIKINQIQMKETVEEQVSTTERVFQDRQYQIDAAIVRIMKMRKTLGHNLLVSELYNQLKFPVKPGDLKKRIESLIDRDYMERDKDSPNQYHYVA
UniProt Q13617: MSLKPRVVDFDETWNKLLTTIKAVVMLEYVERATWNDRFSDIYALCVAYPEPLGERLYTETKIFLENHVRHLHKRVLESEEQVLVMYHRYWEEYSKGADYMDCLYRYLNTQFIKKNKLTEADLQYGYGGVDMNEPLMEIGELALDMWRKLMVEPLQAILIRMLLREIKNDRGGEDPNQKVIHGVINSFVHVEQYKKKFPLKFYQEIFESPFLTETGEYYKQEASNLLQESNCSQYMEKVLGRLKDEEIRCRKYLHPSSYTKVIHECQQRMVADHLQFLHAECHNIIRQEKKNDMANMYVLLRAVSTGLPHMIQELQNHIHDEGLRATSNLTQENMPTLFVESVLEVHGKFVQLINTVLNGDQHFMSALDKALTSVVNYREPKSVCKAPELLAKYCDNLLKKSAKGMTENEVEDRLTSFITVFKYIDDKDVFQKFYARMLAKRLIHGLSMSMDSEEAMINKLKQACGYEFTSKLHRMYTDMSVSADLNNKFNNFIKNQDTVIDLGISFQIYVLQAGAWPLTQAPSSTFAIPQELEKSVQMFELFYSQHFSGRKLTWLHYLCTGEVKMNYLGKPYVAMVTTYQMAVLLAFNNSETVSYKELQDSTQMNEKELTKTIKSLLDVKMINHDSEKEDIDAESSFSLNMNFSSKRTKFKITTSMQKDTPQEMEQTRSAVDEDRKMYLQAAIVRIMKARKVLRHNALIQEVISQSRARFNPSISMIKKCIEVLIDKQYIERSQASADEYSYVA
UniProt Q9NYG5: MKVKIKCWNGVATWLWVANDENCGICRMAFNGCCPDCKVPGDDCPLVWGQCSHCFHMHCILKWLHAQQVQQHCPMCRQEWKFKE
UniProt Q9UBF6: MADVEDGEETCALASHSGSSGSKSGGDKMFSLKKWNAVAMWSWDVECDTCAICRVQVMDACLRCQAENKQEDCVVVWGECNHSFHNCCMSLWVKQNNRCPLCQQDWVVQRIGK

[21] = target: T1, ScAPC2 fused to the GAL4 activation domain (yeast; S. cerevisiae); assay: yeast two-hybrid in HF7c cells

Measured: binding

HA tagged human APC11 (from UniProt Q9NYG5 1-84)
binds: [1] | [2] | [3]

full length human APC11 fused to the Gal4 DNA activation domain (from UniProt Q9NYG5 1-84)
binds: [4] | [5]

HA tagged human ROC2 (from UniProt Q9UBF6 29-113)
not listed: [2] | [3] | [4] | [5] | [17] | [18] | [19] | [20] | [21]
binds: all other assays above

full length human ROC2 fused to the Gal4 DNA activation domain (from UniProt Q9UBF6 29-113)
binds: [17] | [18] | [19]

ScROC1 fused to the GAL4 DNA binding domain (pGBT8-ScROC1) (from UniProt P04386 1-147; Q08273 1-121)
binds: [20] | [21]
